Laboratory results as given in PMC12948281.

Molecular target: ferritin heavy chain 1 (FTH1), endogenous in TS^CT cells (human (endogenous in TS^CT cells)) (UniProt P02794)
Assay: affinity purification with mass spectrometry; IP of endogenous FTH1 with anti-FTH1 protein A+G agarose beads from TS^CT cells, control or treated with testosterone for 24 h; SDS-PAGE, in-gel trypsin digestion, LC-MS/MS

binding: binds
Substance: heat shock cognate protein Hsc70 (encoded by HSPA8), endogenous in TS^CT cells (from UniProt P11142 1-646)

No constants are given. Whether binding was seen depends on the method and setting. Binding seen in cells or lysates may run through a third protein. Here binding means that the protein was enriched with, or labelled near, the bait; the list need not be complete.
